Assay results published in US6001988.

Chains of the proteins cited; added tags and fusions are not shown. Residues count along the entry.
UniProt P20273, 20-687: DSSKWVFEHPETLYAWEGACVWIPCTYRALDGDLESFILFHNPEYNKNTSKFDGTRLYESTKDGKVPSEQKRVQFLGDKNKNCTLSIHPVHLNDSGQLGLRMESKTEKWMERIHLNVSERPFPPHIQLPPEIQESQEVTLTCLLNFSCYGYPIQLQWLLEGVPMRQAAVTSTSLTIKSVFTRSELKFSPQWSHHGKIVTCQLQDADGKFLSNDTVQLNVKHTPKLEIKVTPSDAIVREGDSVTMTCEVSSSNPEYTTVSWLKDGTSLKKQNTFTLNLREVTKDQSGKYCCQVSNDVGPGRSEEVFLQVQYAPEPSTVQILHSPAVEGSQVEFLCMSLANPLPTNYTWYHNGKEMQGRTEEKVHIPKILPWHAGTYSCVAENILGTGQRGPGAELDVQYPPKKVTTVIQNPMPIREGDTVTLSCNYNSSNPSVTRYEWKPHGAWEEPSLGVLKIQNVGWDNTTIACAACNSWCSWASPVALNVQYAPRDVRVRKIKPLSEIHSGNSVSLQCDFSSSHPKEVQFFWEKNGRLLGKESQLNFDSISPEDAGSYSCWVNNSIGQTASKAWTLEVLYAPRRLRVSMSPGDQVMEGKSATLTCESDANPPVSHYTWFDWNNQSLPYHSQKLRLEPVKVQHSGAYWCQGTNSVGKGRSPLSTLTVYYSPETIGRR

Columns and labels:
Experiment in all cases: filter binding
[1] = target: T1, wheat germ agglutinin (WGA) (Triticum vulgare) (UniProt P10968); conditions: purified native protein
T1 sequence (looked up, limits assumed): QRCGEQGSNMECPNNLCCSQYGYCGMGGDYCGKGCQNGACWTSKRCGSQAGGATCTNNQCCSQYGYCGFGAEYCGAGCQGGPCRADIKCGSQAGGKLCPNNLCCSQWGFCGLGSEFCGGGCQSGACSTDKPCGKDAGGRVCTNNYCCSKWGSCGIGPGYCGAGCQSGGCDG

[2] = target: CD22beta (CD22beta-Rg) (UniProt P20273); conditions: purified recombinant protein, protein details: fused to human IgG1 Fc (provided by A. Varki)
[3] = target: T2, L-selectin (LS-Rg) (Homo sapiens) (UniProt P14151); conditions: purified recombinant protein, protein details: human IgG2 Fc fusion (provided by A. Varki), label: 32P
T2 sequence: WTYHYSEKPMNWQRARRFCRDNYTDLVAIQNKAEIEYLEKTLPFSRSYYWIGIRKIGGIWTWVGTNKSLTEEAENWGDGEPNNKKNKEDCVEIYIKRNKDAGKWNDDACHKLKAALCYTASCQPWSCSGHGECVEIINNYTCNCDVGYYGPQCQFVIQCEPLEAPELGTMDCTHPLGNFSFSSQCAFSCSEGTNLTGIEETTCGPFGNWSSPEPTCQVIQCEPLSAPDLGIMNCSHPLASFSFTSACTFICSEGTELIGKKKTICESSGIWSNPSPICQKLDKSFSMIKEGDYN

[4] = target: T3, Ulex europaeus lectin UEA-II (Ulex europaeus) (UniProt P22973); conditions: 2'-NH2 all C and U; <5% bound at 1 uM protein; purified native protein; protein details: E Y Laboratories; label: 32P
T3 sequence (looked up, limits assumed): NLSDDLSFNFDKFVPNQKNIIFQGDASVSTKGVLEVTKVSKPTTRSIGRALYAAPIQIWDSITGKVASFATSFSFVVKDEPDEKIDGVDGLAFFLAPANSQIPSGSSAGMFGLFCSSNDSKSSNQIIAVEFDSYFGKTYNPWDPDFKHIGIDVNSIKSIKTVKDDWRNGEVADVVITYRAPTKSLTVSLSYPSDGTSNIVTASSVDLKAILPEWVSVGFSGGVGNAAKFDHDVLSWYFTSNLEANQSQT

[5] = target: T4, E-selectin (ES-Rg) (Homo sapiens) (UniProt P16581); conditions: 2'-NH2 all C and U; <5% bound, 4 C; purified recombinant protein; protein details: human IgG1 Fc fusion (provided by A. Varki); label: 32P
T4 sequence: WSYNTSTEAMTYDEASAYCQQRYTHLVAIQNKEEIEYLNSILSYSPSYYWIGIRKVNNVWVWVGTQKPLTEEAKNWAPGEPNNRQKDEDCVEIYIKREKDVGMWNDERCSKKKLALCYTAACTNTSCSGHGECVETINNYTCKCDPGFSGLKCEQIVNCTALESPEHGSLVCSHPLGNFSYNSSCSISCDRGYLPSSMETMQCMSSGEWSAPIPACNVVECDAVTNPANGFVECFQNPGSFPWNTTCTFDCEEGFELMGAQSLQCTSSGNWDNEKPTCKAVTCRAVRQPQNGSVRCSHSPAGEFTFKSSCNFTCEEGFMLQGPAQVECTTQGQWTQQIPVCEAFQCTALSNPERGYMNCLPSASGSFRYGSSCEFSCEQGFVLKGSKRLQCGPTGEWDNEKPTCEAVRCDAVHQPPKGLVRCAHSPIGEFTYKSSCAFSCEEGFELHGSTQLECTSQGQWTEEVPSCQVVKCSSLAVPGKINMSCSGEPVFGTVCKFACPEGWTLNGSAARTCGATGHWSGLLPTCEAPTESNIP

[6] = <3% binding at 1.4 µM, room temp, protein details: E Y Laboratories, single-stranded DNA
[7] = <1% binding at 700 nM, room temp, single-stranded DNA
[8] = 2'-NH2 all C and U, <5% bound at 1 uM WGA, protein details: free lectin, E Y Laboratories, label: 32P
[9] = 2'-NH2 on all C and U, <5% binding at highest protein, 4 C, HSMC

Sequence	Kd [1, 6] [µM]	Kd [2, 7] [µM]	Kd [2, 9] [µM]	other results
CTACCTACGATCTGACTAGCAGCGTTGTACGGGGTTACACACAACGATTTAGATGCTCTGCTTACTCTCATGTAGTTCC [206]	> 100	> 100		
CTACCTACGATCTGACTAGCCAAGGTAACCAGTACAAGGTGCTAAACGTAATGGCTTCGGCTTACTCTCATGTAGTTCC [201]	> 100	> 100		
CTACCTACGATCTGACTAGCCACGACAGAGAACAAGGCGTTAGACGTTATCCGACCACGGCTTACTCTCATGTAGTTCC [233]	> 100	> 100		Kd ([3]; room temp, 380 pM at 37 C, single-stranded DNA): 0.11 µM
CTACCTACGATCTGACTAGCCATCAAGGACTTTGCCCGAAACCCTAGGTTCACGTGTGGGGCTTACTCTCATGTAGTTCC [181]	> 100	> 100		
CTACCTACGATCTGACTAGCCATTCACCATGGCCCCTTCCTACGTATGTTCTGCGGGTGGCTTACTCTCATGTAGTTCC [174]	> 100	> 100		
CTACCTACGATCTGACTAGCCGGACATGAGCGTTACAAGGTGCTAAACGTAACGTACTTGCTTACTCTCATGTAGTTCC [227]	> 100	> 100		
CTACCTACGATCTGACTAGCGCAACGTGGCCCCGTTTAGCTCATTTGACCGTTCCATCCGGCTTACTCTCATGTAGTTCC [122]	> 100	> 100		
CTACCTACGATCTGACTAGCGGAACACGTGAGGTTTACAAGGCACTCGACGTAAACACTTGCTTACTCTCATGTAGTTCC [204]	> 100	> 100		
CTACCTACGATCTGACTAGCTACACAAGGTGCTAAACGTAGAGCCAGATCGGATCTGAGCGCTTACTCTCATGTAGTTCC [111]	> 100	> 100		
CTACCTACGATCTGACTAGCTGCACACCTGAGGGTTACAAGGCGCTAGACGTAACCTCTCGCTTACTCTCATGTAGTTCC [230]	> 100	> 100		
CTACCTACGATCTGACTAGCTGGCGGTACGGGCCGTGCACCCACTTACCTGGGAAGTGAGCTTACTCTCATGTAGTTCC [196]	> 100	> 100		
GGGAAAAGCGAAUCAUACACAAGAACACUAACCAGGUCUCUGAACGCGGGACGGAGGUGUGGGCGAGGUGGAAGCUCCGCCAGAGACCAACCGAGAA [6.11]				Kd [1, 8]: > 20 µM
GGGAAAAGCGAAUCAUACACAAGACAAACCUGCAGUCGCGCGGUGAAACCUAGGGUUGCAACGGUACAUCGCUGUGCUCCGCCAGAGACCAACCGAGAA [6.20]				Kd ([1]; 2'-NH2 all C and U, <5% bound at 1 uM WGA, printed as 6.2, SEQ 27, protein details: free lectin, E Y Laboratories, label: 32P): > 20 µM
GGGAAAAGCGAAUCAUACACAAGACCCAACGUGUCAUCGCGAGCUGGCGGAGAGUUCAUGAGGGUUACGGGUGCUCCGCCAGAGACCAACCGAGAA [11.33]				Kd [1, 8]: > 20 µM
GGGAAAAGCGAAUCAUACACAAGACCGGGGAUGGUGAGUCGGGCAGUGUGACCGAACUGGUGCCCGCUGAGAGCUCCGCCAGAGACCAACCGAGAA [6.6]				Kd [1, 8]: > 20 µM
GGGAAAAGCGAAUCAUACACAAGACGGCUGUGUGGUGUUGGAGCGUCAUAGUAGGAGUCGUCACGAACCAAGGCGCUCCGCCAGAGACCAACCGAGAA [11.24]				Kd [4]: > 20 µM

Sequence	Kd [1, 6] [µM]	Kd [2, 7] [µM]	Kd [2, 9] [µM]	other results
GGGAAAAGCGAAUCAUACACAAGAGAGAAUGAGCAUGGCCGGGGCAGGAAGUGGGUGGCAACGGAGGCCAGCUCCGCCAGAGACCAACCGAGAA [11.23]				Kd [1, 8]: > 20 µM
GGGAAAAGCGAAUCAUACACAAGAGCCUAGGGAUGCAACGGCGAAUGGAUAGCGAUGUCGUGGACAGCCAGGUGCUCCGCCAGAGACCAACCGAGAA [6.16 (WGA)]				Kd [1, 8]: > 20 µM
GGGAAAAGCGAAUCAUACACAAGAGUCCGCCCCCAGGGAUGCAACGGGGUGGCUCUAAAAGGCUUGGCUAAGCUCCGCCAGAGACCAACCGAGAA [11.13]				Kd [1, 8]: > 20 µM
GGGAAAAGCGAAUCAUACACAAGAGUGGACUGGAAUCUUCGAGGACAGGAACGUUCCUAGGGAUGCAACGGACGCUCCGCCAGAGACCAACCGAGAA [6.34]				Kd [1, 8]: > 20 µM
GGGAAAAGCGAAUCAUACACAAGAGUGUACCAAUGGAGGCAAUGCUGCGGGAAUGGAGGCCUAGGGAUGCAACGCUCCGCCAGAGACCAACCGAGAA [6.35]				Kd [1, 8]: > 20 µM
GGGAGGACGAUGCGGAAACCUUGAUGUGUGAUAGAGCAUCCCCCAGGCGACGUACCAGACGACUCGCCCGA [F14.9]			> 20	Kd [5]: > 20 µM
GGGAGGACGAUGCGGAAAGUUAUGAGUCCGUAUAUCAAGGUCGACAUGUGUGAAUCAGACGACUCGCCCGA [F13.48]			> 20	Kd [5]: > 20 µM
GGGAGGACGAUGCGGCGCGUAUGUGUGAAAGCGUGUGCACGGAGGCGUCUACAAUCAGACGACUCGCCCGA [F13.32]			> 20	Kd [5]: > 20 µM
GGGAGGACGAUGCGGCGGCCCUUAUCGGAGGUCUGCGCCACUAAUUACAUCCACCAGACGACUCGCCCGA [F13.59]			> 20	Kd [5]: > 20 µM; Kd ([3]; 2'-NH2 all C and U, <5% bound at highest concentration, 4 C and room temp): > 20 µM
GGGAGGACGAUGCGGGAUGUAAAUGACAAAUGAACCUCGAAAGAUUGCACACUCCAGACGACUCGCCCGA [F13.42]			> 20	
GGGAGGACGAUGCGGUAACAACAAUCAAGGCGGGUUCACCGCCCCAGUAUGAGUGCAGACGACUCGCCCGA [F14.20]			> 20	
GGGAGGACGAUGCGGUAACAUAAAGUAGCGCGUCUGUGAGAGGAAGUGCCUGGAUCAGACGACUCGCCCGA [F13.57]			> 20	
GGGAGGACGAUGCGGUCCCAGAGUCCCGUGAUGCGAAGAAUCCAUUAGUACCAGACAGACGACUCGCCCGA [F14.53]			> 20	
GGGAGGACGAUGCGGUGUCUCUCCUGACUUUUAUUCUUAGUUCGAGCUGUCCUGGCAGACGACUCGCCCGA [F13.55]			> 20	
GGGAGGACGAUGCGGUUGAGAUGUGUGAGUACAAGCUCAAAAUCCCGUUGGAGGCAGACGACUCGCCCGA [F14.21]			> 20	

For part of these data: Protein sequences can lack the tags named with them. For part of these data: Construct, isoform or probe ends are uncertain for at least one entry.
